Source: paper PMC3875382
These are yes or no findings as the source states them, for the method shown. Binding seen in cells or lysates may run through a third protein. Some binding calls cover weakened binding; strength is not graded here. Tags and fused reporters may be left off the sequences shown.

Amino acid sequences for entries named in this document (tags omitted).
UniProt Q8S307: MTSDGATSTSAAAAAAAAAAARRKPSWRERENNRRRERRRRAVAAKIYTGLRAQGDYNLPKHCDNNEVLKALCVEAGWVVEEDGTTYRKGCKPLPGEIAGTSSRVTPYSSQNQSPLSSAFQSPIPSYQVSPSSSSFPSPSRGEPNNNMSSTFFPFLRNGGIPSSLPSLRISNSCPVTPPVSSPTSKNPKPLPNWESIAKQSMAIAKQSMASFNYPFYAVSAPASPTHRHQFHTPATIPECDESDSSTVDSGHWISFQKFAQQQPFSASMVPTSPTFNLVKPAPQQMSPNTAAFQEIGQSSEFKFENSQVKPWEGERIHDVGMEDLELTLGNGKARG
UniProt Q9C519: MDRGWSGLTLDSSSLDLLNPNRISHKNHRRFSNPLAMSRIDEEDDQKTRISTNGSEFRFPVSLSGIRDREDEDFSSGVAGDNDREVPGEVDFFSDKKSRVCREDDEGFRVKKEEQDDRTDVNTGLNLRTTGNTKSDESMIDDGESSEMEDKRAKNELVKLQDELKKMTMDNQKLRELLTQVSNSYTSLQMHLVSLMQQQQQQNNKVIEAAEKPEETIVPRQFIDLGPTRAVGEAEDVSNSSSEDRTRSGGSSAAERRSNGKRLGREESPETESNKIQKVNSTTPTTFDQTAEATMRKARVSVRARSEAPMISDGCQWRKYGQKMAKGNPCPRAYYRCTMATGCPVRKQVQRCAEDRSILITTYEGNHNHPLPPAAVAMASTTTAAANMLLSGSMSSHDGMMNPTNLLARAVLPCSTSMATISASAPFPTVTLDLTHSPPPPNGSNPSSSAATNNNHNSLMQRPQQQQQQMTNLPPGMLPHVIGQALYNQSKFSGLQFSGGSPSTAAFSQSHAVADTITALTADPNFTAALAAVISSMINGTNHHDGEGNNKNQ

Key:
[1] = target: BZR1-GFP (expressed in N. benthamiana from the pUb-cYFP-Dest vector) (Arabidopsis) (UniProt Q8S307); test: co-IP; transient co-expression in N. benthamiana leaves; 1 μM epiBL for 1 hr before extraction; BZR1-GFP immunoprecipitated with an anti-GFP antibody (μMACS GFP Isolation Kit); blots with anti-HA or anti-GFP
[2] = target: BZR1-GFP (expressed in Arabidopsis protoplasts; construct of Ryu et al., 2007) (Arabidopsis) (UniProt Q8S307); test: co-IP; transient co-expression in Arabidopsis mesophyll protoplasts, 16 hr after transfection; 1 μM epiBL for 1 hr before extraction; BZR1-GFP immunoprecipitated with an anti-GFP antibody; blots with anti-HA or anti-GFP

binding [1] | binding [2] | Molecule
no binding | – | WRKY6-HA (expressed in N. benthamiana from the pAM-PAT vector) (from UniProt Q9C519 1-553)
binds | – | WRKY40-HA (expressed in N. benthamiana from the pAM-PAT vector) (protein, UniProt Q9SAH7 1-302) MDQYSSSLVDTSLDLTIGVTRMRVEEDPPTSALVEELNRVSAENKKLSEMLTLMCDNYNVLRKQLMEYVNKSNITERDQISPPKKRKSPAREDAFSCAVIGGVSESSSTDQDEYLCKKQREETVVKEKVSRVYYKTEASDTTLVVKDGYQWRKYGQKVTRDNPSPRAYFKCACAPSCSVKKKVQRSVEDQSVLVATYEGEHNHPMPSQIDSNNGLNRHISHGGSASTPVAANRRSSLTVPVTTVDMIESKKVTSPTSRIDFPQVQKLLVEQMASSLTKDPNFTAALAAAVTGKLYQQNHTEK
– | binds | WRKY40-HA (expressed in Arabidopsis protoplasts from the pGWB414 vector) (protein, UniProt Q9SAH7 1-302) MDQYSSSLVDTSLDLTIGVTRMRVEEDPPTSALVEELNRVSAENKKLSEMLTLMCDNYNVLRKQLMEYVNKSNITERDQISPPKKRKSPAREDAFSCAVIGGVSESSSTDQDEYLCKKQREETVVKEKVSRVYYKTEASDTTLVVKDGYQWRKYGQKVTRDNPSPRAYFKCACAPSCSVKKKVQRSVEDQSVLVATYEGEHNHPMPSQIDSNNGLNRHISHGGSASTPVAANRRSSLTVPVTTVDMIESKKVTSPTSRIDFPQVQKLLVEQMASSLTKDPNFTAALAAAVTGKLYQQNHTEK
